# Measured values reported in the supplement of paper PMC8728848.
# The other results are listed elsewhere or left out.
# B1: Sp8391B-bot-388-20-388 (Bacteroides ovatus) (protein)
# chain: GCQNNDENEQHYDNKLFISASNFTKEILFKAGDTNVETGLSVAIAKPEEHDIKVTMSPAPELLSTYKLAYYDETAVLLSEEHYSMPETSTTIKSGSIVSPELPIEFINTGELDIKTTYVLPVTIKSVEGIGVLQSAKTYYYVFRGASLINVVCNISRNRAYPDFKNDSKFNNLTENTMEILFKANSFPNTLNTLMGIESNYLLRIGDATIPNNQLQVATSVNNCTSADLQLESGKWYHVAVAFNKGNVKVYINGVEKLSGSTGKSSVSLGAKHTNEEDGSRCFWVGYSYKDDRYFDGVVSEVRIWNRALTAEEIQATNHFYTIEPESEGLIAYWKFDEGSGTVAKDYSVSGYDLTIEKEPKWESVSLPQ
# Assays:
# Assay in all cases: glycan array binding signal (z-score within array); higher = stronger binding
# Settings in all cases: glycan notation: IUPAC condensed, linker removed
# GlcNAc(b1-3)Man = target: GlcNAc(b1-3)Man
# How it was run: (§1)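 Columns mapping to the same glycan were averaged after glycan names were converted to IUPAC-condensed notation. The data come from 3228 arrays in the Consortium for Functional Glycomics database, limited to those with an available protein sequence. Binding is reported as a within-array Z-score averaged across arrays of one protein sequence and across linkers.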
# [1] = target: GlcNAc(b1-3)[GlcNAc(b1-4)][GlcNAc(b1-6)]GlcNAc
# How it was run: as §1
# [2] = target: GlcNAc(b1-3)[GlcNAc(b1-6)]Gal(b1-4)GlcNAc
# How it was run: as §1
# [3] = target: GlcNAc(b1-3)[GlcNAc(b1-6)]GalNAc
# How it was run: as §1
# [4] = target: GlcNAc(b1-4)Gal(b1-4)GlcNAc
# How it was run: as §1
# GlcNAc(b1-4)GlcNAc = target: GlcNAc(b1-4)GlcNAc
# How it was run: as §1
# [5] = target: GlcNAc(b1-4)GlcNAc(b1-4)GlcNAc
# How it was run: as §1
# [6] = target: GlcNAc(b1-4)GlcNAc(b1-4)GlcNAc(b1-4)GlcNAc(b1-4)GlcNAc
# How it was run: as §1
# [7] = target: GlcNAc(b1-4)GlcNAc(b1-4)GlcNAc(b1-4)GlcNAc(b1-4)GlcNAc(b1-4)GlcNAc
# How it was run: as §1
# [8] = target: GlcNAc(b1-4)[GlcNAc(b1-6)]GalNAc
# How it was run: as §1
# [9] = target: GlcNAc(b1-6)Gal(b1-4)GlcNAc
# How it was run: as §1
# GlcNAc(b1-6)GalNAc = target: GlcNAc(b1-6)GalNAc
# How it was run: as §1
# [10] = target: GlcNAc6S(b1-3)Gal(b1-4)GlcNAc
# How it was run: as §1
# Kdn(a2-3)Gal(b1-3)GalNAc = target: Kdn(a2-3)Gal(b1-3)GalNAc
# How it was run: as §1
# Kdn(a2-3)Gal(b1-3)GlcNAc = target: Kdn(a2-3)Gal(b1-3)GlcNAc
# How it was run: as §1
# Kdn(a2-3)Gal(b1-4)Glc = target: Kdn(a2-3)Gal(b1-4)Glc
# How it was run: as §1
# Kdn(a2-3)Gal(b1-4)GlcNAc = target: Kdn(a2-3)Gal(b1-4)GlcNAc
# How it was run: as §1
# [11] = target: Kdn(a2-3)Gal(b1-4)[Fuc(a1-3)]GlcNAc
# How it was run: as §1
# Kdn(a2-6)Gal(b1-4)GlcNAc = target: Kdn(a2-6)Gal(b1-4)GlcNAc
# How it was run: as §1
# [12] = target: Man(a1-2)Man(a1-2)Man(a1-3)Man
# How it was run: as §1
# [13] = target: Man(a1-2)Man(a1-2)Man(a1-6)[Man(a1-3)]Man
# How it was run: as §1
# Man(a1-2)Man(a1-3)Man = target: Man(a1-2)Man(a1-3)Man
# How it was run: as §1
# [14] = target: Man(a1-2)Man(a1-3)[Man(a1-2)Man(a1-6)]Man
# How it was run: as §1
# [15] = target: Man(a1-2)Man(a1-3)[Man(a1-2)Man(a1-6)]Man(a1-6)[Man(a1-2)Man(a1-2)Man(a1-3)]Man
# How it was run: as §1
# [16] = target: Man(a1-2)Man(a1-3)[Man(a1-2)Man(a1-6)]Man(a1-6)[Man(a1-2)Man(a1-2)Man(a1-3)]Man(b1-4)GlcNAc(b1-4)GlcNAc
# How it was run: as §1
# [17] = target: Man(a1-2)Man(a1-3)[Man(a1-6)]Man(a1-6)[Man(a1-2)Man(a1-3)]Man(b1-4)GlcNAc(b1-4)GlcNAc
# How it was run: as §1
# [18] = target: Man(a1-2)Man(a1-6)[Man(a1-3)]Man(a1-6)[Man(a1-2)Man(a1-2)Man(a1-3)]Man
# How it was run: as §1
# [19] = target: Man(a1-2)Man(a1-6)[Man(a1-3)]Man(a1-6)[Man(a1-2)Man(a1-2)Man(a1-3)]Man(b1-4)GlcNAc(b1-4)GlcNAc
# How it was run: as §1
# Man(a1-3)[Man(a1-6)]Man = target: Man(a1-3)[Man(a1-6)]Man
# How it was run: as §1
# [20] = target: Man(a1-3)[Man(a1-6)]Man(a1-6)[Man(a1-2)Man(a1-3)]Man(b1-4)GlcNAc(b1-4)GlcNAc
# How it was run: as §1
# [21] = target: Man(a1-3)[Man(a1-6)]Man(a1-6)[Man(a1-3)]Man
# How it was run: as §1
# [22] = target: Man(a1-3)[Man(a1-6)]Man(a1-6)[Man(a1-3)]Man(b1-4)GlcNAc(b1-4)GlcNAc
# How it was run: as §1
# [23] = target: Man(a1-3)[Man(a1-6)]Man(b1-4)GlcNAc(b1-4)GlcNAc
# How it was run: as §1
# [24] = target: Man(a1-3)[Man(a1-6)]Man(b1-4)GlcNAc(b1-4)[Fuc(a1-6)]GlcNAc
# How it was run: as §1
# Man(a1-6)Man = target: Man(a1-6)Man
# How it was run: as §1
# Man(b1-4)GlcNAc = target: Man(b1-4)GlcNAc
# How it was run: as §1
# MurNAc(b1-4)GlcNAc = target: MurNAc(b1-4)GlcNAc
# How it was run: as §1
# Neu5Ac(a2-3)Gal = target: Neu5Ac(a2-3)Gal
# How it was run: as §1
binder,measurement,setting,value
B1,glycan array binding signal (z-score),GlcNAc(b1-3)Man,0.083
same,glycan array binding signal (z-score),[1],-0.908
same,glycan array binding signal (z-score),[2],-1.1
same,glycan array binding signal (z-score),[3],-0.04
same,glycan array binding signal (z-score),[4],-0.752
same,glycan array binding signal (z-score),GlcNAc(b1-4)GlcNAc,0.278
same,glycan array binding signal (z-score),[5],-0.077
same,glycan array binding signal (z-score),[6],-0.574
same,glycan array binding signal (z-score),[7],-0.594
same,glycan array binding signal (z-score),[8],-0.549
same,glycan array binding signal (z-score),[9],0.387
same,glycan array binding signal (z-score),GlcNAc(b1-6)GalNAc,0.361
same,glycan array binding signal (z-score),[10],-0.463
same,glycan array binding signal (z-score),Kdn(a2-3)Gal(b1-3)GalNAc,0.008
same,glycan array binding signal (z-score),Kdn(a2-3)Gal(b1-3)GlcNAc,-0.992
same,glycan array binding signal (z-score),Kdn(a2-3)Gal(b1-4)Glc,-0.215
same,glycan array binding signal (z-score),Kdn(a2-3)Gal(b1-4)GlcNAc,0.306
same,glycan array binding signal (z-score),[11],1.91
same,glycan array binding signal (z-score),Kdn(a2-6)Gal(b1-4)GlcNAc,0.757
same,glycan array binding signal (z-score),[12],0.58
same,glycan array binding signal (z-score),[13],0.712
same,glycan array binding signal (z-score),Man(a1-2)Man(a1-3)Man,0.177
same,glycan array binding signal (z-score),[14],-0.309
same,glycan array binding signal (z-score),[15],-1.15
same,glycan array binding signal (z-score),[16],0.272
same,glycan array binding signal (z-score),[17],-0.67
same,glycan array binding signal (z-score),[18],-0.348
same,glycan array binding signal (z-score),[19],0.616
same,glycan array binding signal (z-score),Man(a1-3)[Man(a1-6)]Man,-1.24
same,glycan array binding signal (z-score),[20],-0.452
same,glycan array binding signal (z-score),[21],0.661
same,glycan array binding signal (z-score),[22],0.933
same,glycan array binding signal (z-score),[23],-0.057
same,glycan array binding signal (z-score),[24],-0.197
same,glycan array binding signal (z-score),Man(a1-6)Man,-0.352
same,glycan array binding signal (z-score),Man(b1-4)GlcNAc,1.19
same,glycan array binding signal (z-score),MurNAc(b1-4)GlcNAc,-0.265
same,glycan array binding signal (z-score),Neu5Ac(a2-3)Gal,-0.059

# An excerpt from the list above, for reference:
binder,measurement,setting,value
B1,glycan array binding signal (z-score),[14],-0.309
same,glycan array binding signal (z-score),[15],-1.15
same,glycan array binding signal (z-score),[16],0.272
